From the supplement of paper PMC12823440, “Inhibitors supercharge kinase turnover through native proteolytic circuits” (Nature, 2025)
Some of the results follow. Hit calls seldom repeat between salt and free forms of one compound.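 Kinases were expressed as nanoluciferase fusions in K562 cells and luminescence was read every 4 h between 2 and 18 h as percent of control, DMSO set to 100% and a positive control to 0%. A time point counts as decreased when the signal drops significantly (2 sigma). The hit call is the authors' own, does not follow from the count of time points alone, and its rule is not shown.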

Chains of the proteins cited; added tags and fusions are not shown. Lines headed by an entry give the natural chain unless they say otherwise; changes in a name come on top.
UniProt Q9UBF8: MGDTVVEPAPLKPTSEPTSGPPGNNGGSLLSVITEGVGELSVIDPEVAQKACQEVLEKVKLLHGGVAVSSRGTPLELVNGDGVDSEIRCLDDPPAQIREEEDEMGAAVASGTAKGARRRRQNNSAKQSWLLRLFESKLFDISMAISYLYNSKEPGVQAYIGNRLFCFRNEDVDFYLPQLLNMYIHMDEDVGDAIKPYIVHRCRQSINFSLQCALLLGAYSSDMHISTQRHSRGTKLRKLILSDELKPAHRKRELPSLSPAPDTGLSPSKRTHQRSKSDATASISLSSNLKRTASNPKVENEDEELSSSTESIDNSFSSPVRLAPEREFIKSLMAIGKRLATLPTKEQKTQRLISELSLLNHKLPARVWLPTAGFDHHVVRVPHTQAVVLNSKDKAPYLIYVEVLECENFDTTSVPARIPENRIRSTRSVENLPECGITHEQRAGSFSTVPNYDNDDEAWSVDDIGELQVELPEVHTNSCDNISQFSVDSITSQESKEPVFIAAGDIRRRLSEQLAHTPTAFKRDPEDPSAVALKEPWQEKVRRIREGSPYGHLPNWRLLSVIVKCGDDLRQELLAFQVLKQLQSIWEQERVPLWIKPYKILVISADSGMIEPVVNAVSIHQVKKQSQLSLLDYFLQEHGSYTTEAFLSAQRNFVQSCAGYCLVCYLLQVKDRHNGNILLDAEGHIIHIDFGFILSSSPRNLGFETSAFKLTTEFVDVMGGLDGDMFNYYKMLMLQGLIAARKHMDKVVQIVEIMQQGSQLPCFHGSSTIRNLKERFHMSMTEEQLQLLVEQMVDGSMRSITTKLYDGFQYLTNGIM

These molecules were tested against PIK4CB (UniProt Q9UBF8) (assay: number of time points (of 5) at which kinase-Nluc abundance scored as decreased, DMSO-normalised (count); higher = more persistent destabilization). Conditions: K562; 2-18 h.

| Compound | number of time points |
| --- | --- |
| O=Nc1c(-c2c(O)[nH]c3cc(Br)ccc23)[nH]c2ccccc12 [GSK 3 Inhibitor IX] (2.5 µM) | 0 |
| Cn1c2cc([S+](C)[O-])sc2c2cnn(Cc3cccc(N)c3)c(=O)c21 (stereo not drawn) (2.5 µM) | 0 |
| Cc1cc(-n2c(=O)ccc3c[nH]c4nccc-4c32)ccc1F (10 µM) | 0 |
| CCCn1/c(=N/C(=O)c2cccc(C(N)=O)c2)[nH]c2ccccc21 [Takinib] (10 µM) | 0 |
| CO[C@H]1C[C@@H]2CC[C@@H](C)[C@@](O)(O2)C(=O)C(=O)N2CCCC[C@H]2C(=O)O[C@H]([C@H](C)C[C@@H]2CC[C@@H](OCCO)[C@H](OC)C2)CC(=O)[C@H](C)/C=C(\C)[C@@H](O)[C@@H](OC)C(=O)[C@H](C)C[C@H](C)/C=C/C=C/C=C/1C [Everolimus] (10 µM) | 0 |
| Cc1cccc(-c2[nH]ncc2-c2ccnc3ccccc23)n1 (10 µM) | 0 |
| CC1(N)CCN(c2cccnc2NC(=O)c2nc(-c3ncccc3C(F)(F)F)cnc2N)CC1 [Darovasertib] (10 µM) | 0 |
| COc1cc2c(cc1Nc1ncc(C(N)=O)c(Nc3c(F)cccc3C(F)(F)F)n1)CN(C)CC2 (2.5 µM) | 0 |
| COc1cc2ncnc(Nc3ccc(O)c(Br)c3)c2cc1OC (10 µM) | 0 |
| Nc1nc2c(nc(Br)n2[C@@H]2O[C@@H]3COP(=O)(O)O[C@H]3[C@H]2O)c(=O)[nH]1 [8-Bromo-cGMP (sodium)] (10 µM) | 0 |
| O=c1c2c([nH]n1-c1nc3ccccc3s1)CCCC2 (10 µM) | 0 |
| COC(=O)Nc1ccc(-c2nc(N3CCOCC3)c3cnn(C4CCN(Cc5cccnc5)CC4)c3n2)cc1 (10 µM) | 0 |
| N[C@@H]1CCCN(c2c(/C=C3\SC(=O)NC3=O)cccc2-c2ccccc2)C1 (10 µM) | 0 |
| Nc1nc(N)c2nc(-c3cccc(O)c3)c(-c3cccc(O)c3)nc2n1 (10 µM) | 0 |
| Cn1ncc(NC(=O)c2nc(-c3c(F)cccc3F)sc2N)c1N1CC[C@@H](N)[C@H](F)CC1 (10 µM) | 0 |
| C=C1C(=O)[C@@]23[C@H](O)C[C@@H]4C(C)(C)C(=O)CC[C@@]4(C)[C@@H]2CC[C@@H]1[C@H]3O [Glaucocalyxin A] (2.5 µM) | 0 |
| O=C(NCCO)c1cc(C(=O)NCCO)cc(C(=O)NCCO)c1 (10 µM) | 0 |
| CCC(=O)Nc1cccc(Oc2nc(Nc3ccc(N4CCN(C)CC4)cc3OC)ncc2Cl)c1 (10 µM) | 1 |
| Cc1nn(C)cc1-c1nc2c(N3CCN(Cc4ccc(Cl)cc4)CC3)c(Cl)cnc2[nH]1 (10 µM) | 0 |

| Compound | number of time points |
| --- | --- |
| CC(C)Oc1ccc(F)c(-c2cnc(N)c(C(=O)Nc3cnccc3N3CCC[C@@H](C(=O)O)C3)n2)c1 (2 µM) | 0 |
| Nc1ncc(C(=O)NC2CN(C(=O)C3CC3)C2)c2ccc(-c3cccc(F)c3)nc12 (2 µM) | 0 |
| O=C(ON=C1c2ccccc2-c2nc3ccccc3nc21)c1ccco1 (2.5 µM) | 0 |
| CC(C)=CC[C@@H](O)C1=CC(=O)c2c(O)ccc(O)c2C1=O [Shikonin] (10 µM) | 0 |
| COC(=O)Nc1ccc(-c2nc(N3CCOCC3)c3cnn(C4CCN(C(=O)OC)CC4)c3n2)cc1 (10 µM) | 0 |
| CNC(=O)c1ccc2c(c1)ncn2-c1ccc(CC(=O)OC(C)(C)C)cc1 (10 µM) | 0 |
| O=C1CC[C@H](NC(=O)Cc2ccccc2)C(=O)N1 [Antineoplaston A10] (10 µM) | 0 |
| COCCOCCc1c(C)c2cc(OC)c(O)c(C=O)c2oc1=O (10 µM) | 0 |
| Cc1ccc(C(=O)NC2CC2)cc1-n1ncc(C(=O)c2cccc(C#N)c2)c1N [Acumapimod] (10 µM) | 0 |
| O=C(NCCN1CCOCC1)Nc1nc2ccc(Sc3nnc4ccc(-c5ccc(F)cc5)nn34)cc2s1 (10 µM) | 0 |
| COc1cc(F)ccc1-c1ncnc(Nc2cccc(C[S@](C)(=N)=O)c2)n1 [Atuveciclib] (2.5 µM) | 2 |
| CCn1c(-c2nonc2N)nc2c(C#CC(C)(C)O)ncc(OC[C@H]3CCCNC3)c21 (10 µM) | 0 |
| O=c1[nH]ccc2nc(-c3ccc(CN4CCC(c5nc(-c6ccccn6)n[nH]5)CC4)cc3)c(-c3ccccc3)cc12 (10 µM) | 0 |
| COCCOc1ccc2c(c1)ncn2-c1ccc2cccc(N3CCC(N)CC3)c2n1 (10 µM) | 2 |
| CN1CCC(CNc2ccc3ncc(-c4cccc(OC(F)(F)F)c4)n3n2)CC1 (2.5 µM) | 0 |
| Cc1cc(C(=O)NC(C)(C)C)cc(C#Cc2ccc3c4c(oc3c2)C(C)(C)c2cc(NS(C)(=O)=O)ccc2C4=O)n1 (10 µM) | 0 |
| CC(O)(C#Cc1ccc2c(c1)N(c1nc(N)ncc1Cl)CC2)c1nccs1 (stereo not drawn) (2.5 µM) | 0 |
| COc1cc(-c2cc(-c3ccc(N4CCNCC4)cc3)cnc2C)cc(OC)c1OC (10 µM) | 0 |
| Cn1c(CNc2cccc(C(=O)NCc3ccccc3C(F)(F)F)c2)nnc1-c1ccncc1 (10 µM) | 0 |

In a second layout: results already given.
Compound,number of time points
CC(C)Oc1ccc(F)c(-c2cnc(N)c(C(=O)Nc3cnccc3N3CCC[C@@H](C(=O)O)C3)n2)c1 (2 µM),0
Nc1ncc(C(=O)NC2CN(C(=O)C3CC3)C2)c2ccc(-c3cccc(F)c3)nc12 (2 µM),0
